Reference: the supplement of paper PMC12819154, “High-throughput peptide-centric local stability assay extends protein–ligand identification to membrane proteins, tissues and bacteria” (Nature Structural & Molecular Biology, 2025)
The list shows a part of the results. Most entries show no effect beyond the scatter of the controls.

Amino acid sequences for entries named in this document (tags omitted). A change or cut given only in a name is not applied to a line headed by its entry.
UniProt P97478: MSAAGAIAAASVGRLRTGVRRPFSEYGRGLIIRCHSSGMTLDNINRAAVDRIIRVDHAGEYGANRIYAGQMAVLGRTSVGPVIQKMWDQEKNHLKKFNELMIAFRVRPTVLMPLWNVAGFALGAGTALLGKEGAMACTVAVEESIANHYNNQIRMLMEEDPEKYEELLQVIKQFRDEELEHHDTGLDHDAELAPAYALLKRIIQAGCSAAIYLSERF
UniProt P80316, whole entry: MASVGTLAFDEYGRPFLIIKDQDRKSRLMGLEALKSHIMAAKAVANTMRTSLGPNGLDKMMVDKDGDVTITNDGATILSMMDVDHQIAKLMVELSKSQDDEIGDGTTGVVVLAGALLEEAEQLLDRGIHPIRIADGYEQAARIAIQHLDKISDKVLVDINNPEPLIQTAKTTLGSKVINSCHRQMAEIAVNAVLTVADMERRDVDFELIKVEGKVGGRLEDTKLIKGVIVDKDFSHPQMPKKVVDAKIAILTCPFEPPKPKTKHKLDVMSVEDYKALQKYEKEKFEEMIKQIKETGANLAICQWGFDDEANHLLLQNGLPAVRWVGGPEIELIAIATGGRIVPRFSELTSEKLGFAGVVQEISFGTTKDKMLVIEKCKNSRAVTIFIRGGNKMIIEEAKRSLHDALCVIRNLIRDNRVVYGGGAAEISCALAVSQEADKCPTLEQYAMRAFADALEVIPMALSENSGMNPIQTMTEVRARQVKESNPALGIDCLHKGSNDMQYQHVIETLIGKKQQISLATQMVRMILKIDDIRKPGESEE
UniProt P97434: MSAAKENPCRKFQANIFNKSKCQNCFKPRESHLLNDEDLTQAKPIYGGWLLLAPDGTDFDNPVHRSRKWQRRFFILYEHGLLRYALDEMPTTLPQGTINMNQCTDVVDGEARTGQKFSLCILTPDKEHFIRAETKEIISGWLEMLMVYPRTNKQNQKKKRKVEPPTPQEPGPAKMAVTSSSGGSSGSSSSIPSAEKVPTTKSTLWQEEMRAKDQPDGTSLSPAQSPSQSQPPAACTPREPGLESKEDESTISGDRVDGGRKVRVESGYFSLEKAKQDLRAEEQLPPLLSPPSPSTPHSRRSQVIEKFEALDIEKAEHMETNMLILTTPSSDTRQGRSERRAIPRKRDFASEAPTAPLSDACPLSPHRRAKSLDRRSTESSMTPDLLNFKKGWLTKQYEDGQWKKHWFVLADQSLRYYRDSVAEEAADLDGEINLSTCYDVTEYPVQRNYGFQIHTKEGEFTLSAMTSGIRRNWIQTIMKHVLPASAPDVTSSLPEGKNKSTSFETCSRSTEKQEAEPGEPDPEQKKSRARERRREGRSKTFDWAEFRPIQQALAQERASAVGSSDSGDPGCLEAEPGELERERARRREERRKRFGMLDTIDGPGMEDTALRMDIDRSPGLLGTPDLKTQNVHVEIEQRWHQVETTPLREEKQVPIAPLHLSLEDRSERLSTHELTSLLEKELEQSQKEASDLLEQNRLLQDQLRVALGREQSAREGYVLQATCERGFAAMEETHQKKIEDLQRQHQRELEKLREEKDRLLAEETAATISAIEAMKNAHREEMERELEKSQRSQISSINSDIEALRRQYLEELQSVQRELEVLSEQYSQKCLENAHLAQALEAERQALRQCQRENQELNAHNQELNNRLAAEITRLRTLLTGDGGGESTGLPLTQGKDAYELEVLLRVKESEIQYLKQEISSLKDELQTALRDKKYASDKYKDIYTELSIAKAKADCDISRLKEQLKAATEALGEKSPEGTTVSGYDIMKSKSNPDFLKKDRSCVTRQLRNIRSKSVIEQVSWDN
UniProt P97328: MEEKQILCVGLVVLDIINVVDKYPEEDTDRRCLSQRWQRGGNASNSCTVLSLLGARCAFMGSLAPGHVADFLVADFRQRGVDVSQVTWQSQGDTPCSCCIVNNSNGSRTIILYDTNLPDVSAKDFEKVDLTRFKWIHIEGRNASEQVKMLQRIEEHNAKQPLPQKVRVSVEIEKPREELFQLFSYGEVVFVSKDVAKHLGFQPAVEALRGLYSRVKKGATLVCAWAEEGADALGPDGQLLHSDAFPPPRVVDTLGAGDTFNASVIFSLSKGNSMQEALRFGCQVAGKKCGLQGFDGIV
UniProt P97304, whole entry: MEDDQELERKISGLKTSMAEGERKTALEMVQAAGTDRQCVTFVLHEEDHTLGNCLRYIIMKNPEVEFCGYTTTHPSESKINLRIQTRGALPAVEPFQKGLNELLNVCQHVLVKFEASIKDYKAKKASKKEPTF
UniProt P70269: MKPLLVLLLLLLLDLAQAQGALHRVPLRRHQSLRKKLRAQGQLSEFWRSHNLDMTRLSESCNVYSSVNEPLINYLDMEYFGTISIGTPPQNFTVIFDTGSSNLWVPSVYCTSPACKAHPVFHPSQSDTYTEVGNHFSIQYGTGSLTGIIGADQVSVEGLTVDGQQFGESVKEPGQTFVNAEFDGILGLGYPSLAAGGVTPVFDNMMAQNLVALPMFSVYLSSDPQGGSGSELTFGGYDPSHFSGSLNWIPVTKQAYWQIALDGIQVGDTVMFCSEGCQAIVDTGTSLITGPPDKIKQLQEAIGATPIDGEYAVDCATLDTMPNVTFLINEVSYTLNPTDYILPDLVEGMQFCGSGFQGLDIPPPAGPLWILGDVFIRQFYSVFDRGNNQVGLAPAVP
UniProt P70248: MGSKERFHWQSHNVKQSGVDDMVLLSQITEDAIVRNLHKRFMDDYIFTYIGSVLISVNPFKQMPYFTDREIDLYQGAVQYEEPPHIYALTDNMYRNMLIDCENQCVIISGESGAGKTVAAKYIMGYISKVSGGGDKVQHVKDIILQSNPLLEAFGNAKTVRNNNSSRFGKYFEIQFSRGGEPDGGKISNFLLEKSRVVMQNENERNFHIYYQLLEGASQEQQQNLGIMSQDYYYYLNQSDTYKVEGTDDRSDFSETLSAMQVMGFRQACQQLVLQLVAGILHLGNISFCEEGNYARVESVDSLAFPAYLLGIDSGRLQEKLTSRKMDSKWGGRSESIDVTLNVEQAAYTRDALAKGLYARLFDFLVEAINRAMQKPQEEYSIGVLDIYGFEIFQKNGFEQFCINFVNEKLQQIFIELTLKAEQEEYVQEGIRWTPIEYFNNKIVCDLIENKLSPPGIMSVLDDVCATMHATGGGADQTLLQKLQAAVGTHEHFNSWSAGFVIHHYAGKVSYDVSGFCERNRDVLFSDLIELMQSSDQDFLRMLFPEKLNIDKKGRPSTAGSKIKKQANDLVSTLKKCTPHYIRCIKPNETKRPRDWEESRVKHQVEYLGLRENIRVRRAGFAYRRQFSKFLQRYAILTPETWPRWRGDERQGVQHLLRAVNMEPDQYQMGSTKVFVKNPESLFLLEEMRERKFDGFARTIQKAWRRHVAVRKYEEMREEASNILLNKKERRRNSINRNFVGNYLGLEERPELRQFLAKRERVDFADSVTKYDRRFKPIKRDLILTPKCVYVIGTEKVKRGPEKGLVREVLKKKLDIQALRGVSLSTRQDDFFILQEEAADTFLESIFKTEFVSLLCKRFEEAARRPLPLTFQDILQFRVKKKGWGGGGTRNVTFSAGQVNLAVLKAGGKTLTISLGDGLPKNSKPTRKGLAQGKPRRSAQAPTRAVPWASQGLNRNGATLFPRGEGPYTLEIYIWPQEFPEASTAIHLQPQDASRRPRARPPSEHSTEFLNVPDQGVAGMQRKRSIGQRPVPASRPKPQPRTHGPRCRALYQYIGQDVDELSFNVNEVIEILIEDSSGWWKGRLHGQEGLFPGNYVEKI
UniProt P97287, whole entry: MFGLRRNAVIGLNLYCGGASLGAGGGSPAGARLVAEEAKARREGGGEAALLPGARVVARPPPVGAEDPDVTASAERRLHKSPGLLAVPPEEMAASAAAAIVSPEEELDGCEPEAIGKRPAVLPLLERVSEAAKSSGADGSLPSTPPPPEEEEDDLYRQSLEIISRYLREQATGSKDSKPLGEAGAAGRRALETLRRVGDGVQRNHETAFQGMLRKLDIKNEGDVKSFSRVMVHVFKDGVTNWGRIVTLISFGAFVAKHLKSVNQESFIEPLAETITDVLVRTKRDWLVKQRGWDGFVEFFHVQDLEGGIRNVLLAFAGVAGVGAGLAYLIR
UniProt P70182: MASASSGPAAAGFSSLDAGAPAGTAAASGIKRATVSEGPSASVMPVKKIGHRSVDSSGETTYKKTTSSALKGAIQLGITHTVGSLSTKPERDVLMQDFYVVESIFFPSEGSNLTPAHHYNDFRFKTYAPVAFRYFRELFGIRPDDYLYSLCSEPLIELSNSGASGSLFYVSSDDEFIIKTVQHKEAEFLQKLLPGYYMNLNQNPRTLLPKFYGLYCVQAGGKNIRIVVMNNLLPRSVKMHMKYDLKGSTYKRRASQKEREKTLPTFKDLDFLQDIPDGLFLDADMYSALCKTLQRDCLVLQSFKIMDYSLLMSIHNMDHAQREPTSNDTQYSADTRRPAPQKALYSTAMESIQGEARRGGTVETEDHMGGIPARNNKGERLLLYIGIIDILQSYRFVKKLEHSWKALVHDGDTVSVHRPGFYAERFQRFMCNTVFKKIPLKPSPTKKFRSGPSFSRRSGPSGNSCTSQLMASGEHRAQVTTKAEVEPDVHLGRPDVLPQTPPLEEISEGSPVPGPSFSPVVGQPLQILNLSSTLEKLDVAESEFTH
UniProt P70375: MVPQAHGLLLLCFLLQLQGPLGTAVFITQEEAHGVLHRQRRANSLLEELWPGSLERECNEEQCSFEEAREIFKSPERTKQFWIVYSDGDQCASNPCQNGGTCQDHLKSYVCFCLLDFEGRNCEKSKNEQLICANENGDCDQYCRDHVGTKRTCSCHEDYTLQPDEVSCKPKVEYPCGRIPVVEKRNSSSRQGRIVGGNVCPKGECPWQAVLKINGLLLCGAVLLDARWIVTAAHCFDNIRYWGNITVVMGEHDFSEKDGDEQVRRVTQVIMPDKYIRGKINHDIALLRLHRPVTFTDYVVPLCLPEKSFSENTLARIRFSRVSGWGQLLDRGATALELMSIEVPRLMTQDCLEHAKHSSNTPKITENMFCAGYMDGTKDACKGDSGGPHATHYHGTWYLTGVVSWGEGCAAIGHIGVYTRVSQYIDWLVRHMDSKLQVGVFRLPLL
UniProt P97452: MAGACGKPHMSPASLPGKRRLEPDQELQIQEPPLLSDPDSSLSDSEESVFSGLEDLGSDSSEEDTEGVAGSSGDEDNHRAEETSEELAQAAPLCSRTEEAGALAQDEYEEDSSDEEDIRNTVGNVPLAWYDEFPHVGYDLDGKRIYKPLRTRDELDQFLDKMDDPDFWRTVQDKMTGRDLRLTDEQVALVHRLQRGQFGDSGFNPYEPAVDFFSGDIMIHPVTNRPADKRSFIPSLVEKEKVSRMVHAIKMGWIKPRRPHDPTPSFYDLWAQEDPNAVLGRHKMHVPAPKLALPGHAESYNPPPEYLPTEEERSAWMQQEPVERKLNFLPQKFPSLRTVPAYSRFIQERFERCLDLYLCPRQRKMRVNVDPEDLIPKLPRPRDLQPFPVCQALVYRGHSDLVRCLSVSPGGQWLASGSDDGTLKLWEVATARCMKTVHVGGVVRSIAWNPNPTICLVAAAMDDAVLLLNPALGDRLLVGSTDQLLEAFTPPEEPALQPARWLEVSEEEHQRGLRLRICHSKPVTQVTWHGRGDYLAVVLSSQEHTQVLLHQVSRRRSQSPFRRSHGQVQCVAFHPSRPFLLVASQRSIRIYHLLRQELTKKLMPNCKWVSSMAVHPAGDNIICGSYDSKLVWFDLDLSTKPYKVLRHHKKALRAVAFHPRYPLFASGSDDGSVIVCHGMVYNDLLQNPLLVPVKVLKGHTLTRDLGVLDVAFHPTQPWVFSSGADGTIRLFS

Compound: CN[C@@H]1C[C@H]2O[C@@](C)([C@@H]1OC)n1c3ccccc3c3c4c(c5c6ccccc6n2c5c31)C(=O)NC4 [staurosporine]
Experiment: log2 fold change of tryptic peptide abundance, ligand vs vehicle (limited proteolysis) (log2 ratio); higher = more trypsin-susceptible (destabilized)
Conditions: ligand concentration: 20 uM; sample: mouse liver crude lysate; replicate design: treated separately

Row | Target | log2 fold change
1 | UniProt P97478 (peptide sequence: VDHAGEYGANR, peptide start residue: 55) | -0.193
2 | UniProt P80316 (peptide sequence: QQISLATQMVR, peptide start residue: 515) | -0.151
3 | UniProt P97434 (peptide sequence: FFILYEHGLLR, peptide start residue: 73) | -0.757
4 | UniProt P97328 (peptide sequence: FGCQVAGKK, peptide start residue: 280) | -0.324
5 | UniProt P97304 (peptide sequence: TSMAEGER, peptide start residue: 16) | -0.341
6 | UniProt P70269 (peptide sequence: AQGQLSEFWR, peptide start residue: 39) | 0.366
7 | UniProt P70248 (peptide sequence: EEASNILLNKK, peptide start residue: 718) | 0.358
8 | UniProt P63328 (peptide sequence: LSTTDRVVK, peptide start residue: 11) | -0.166
9 | UniProt P97287 (peptide sequence: DSKPLGEAGAAGR, peptide start residue: 176) | -0.372
10 | UniProt P70182 (peptide sequence: RATVSEGPSASVMPVKK, peptide start residue: 32) | 0.395
11 | UniProt P70375 (peptide sequence: LMTQDCLEHAK, peptide start residue: 346) | -0.158
12 | UniProt P97452 (peptide sequence: KLNFLPQKFPSLR, peptide start residue: 325) | -0.148

2 records drawn at random from the list so far, as already listed:
Row | Target | log2 fold change
1 | UniProt P97478 (peptide sequence: VDHAGEYGANR, peptide start residue: 55) | -0.193
3 | UniProt P97434 (peptide sequence: FFILYEHGLLR, peptide start residue: 73) | -0.757
